No constants are given. Whether binding was seen depends on the method and setting. In cells and extracts the contact can be indirect. Some results given as binding are weak or reduced against the parent protein; the word gives no strength. For part of these data: Sequences can lack the tags named with a protein.
Legend:
[1] = biological target: hRpt3 (a member of the proteasome ATPase ring) (human (endogenous in HCT116)) (UniProt P43686); assay: co-IP; anti-hRpt3 immunoprecipitation from lysates of HCT116 cells expressing FLAG-EGFP (control) or FLAG-EGFP-hRpn2 (940–953); immunoblot for hRpn13
[2] = biological target: hRpt3 (a member of the proteasome ATPase ring) (human (endogenous in HCT116)) (UniProt P43686); assay: co-IP; anti-hRpt3 immunoprecipitation of proteasomes from lysates of HCT116 cells treated with 1 μM RA190 for 24 h or DMSO; immunoblot
[3] = biological target: T1, FLAG-EGFP-hRpn2 (940–947) (human); assay: co-IP; anti-FLAG immunoprecipitation from lysates of HCT116 cells expressing FLAG-EGFP constructs; immunoblot for endogenous hRpn13
T1 sequence: QEPEPPEP

The chains behind the UniProt entries cited, without tags or fusion partners.
UniProt Q16186: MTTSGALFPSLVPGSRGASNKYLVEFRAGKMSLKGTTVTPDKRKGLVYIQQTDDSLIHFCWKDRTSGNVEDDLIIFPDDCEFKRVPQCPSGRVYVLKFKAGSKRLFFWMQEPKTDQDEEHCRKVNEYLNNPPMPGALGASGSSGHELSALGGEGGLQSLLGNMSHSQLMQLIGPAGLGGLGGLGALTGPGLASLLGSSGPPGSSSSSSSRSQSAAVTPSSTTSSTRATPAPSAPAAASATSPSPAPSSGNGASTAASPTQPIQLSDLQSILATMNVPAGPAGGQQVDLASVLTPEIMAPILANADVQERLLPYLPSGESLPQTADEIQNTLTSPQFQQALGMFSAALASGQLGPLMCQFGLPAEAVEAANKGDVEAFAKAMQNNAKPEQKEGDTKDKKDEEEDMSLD

“endogenous hRpn13 (from UniProt Q16186 1-407)” was tested, and the binding [1] was “binds”, the binding [2] was “binds” and the binding [3] was “no binding”.

Source: paper PMC5494190
